From EP0890570A2, “Tertiary alkyl primary amines and process for preparing the same” (ROHM AND HAAS COMPANY, priority 1997, dated 1999) come the findings set out here.

Molecules are shown by their SMILES.

A short description of the series: Diesel fuel oxidative stability test (Modified ASTM 2274, 40 hours). Particulars: additive 15 ppm in diesel oil, untreated fuel 2.5. Here is the method:
Fuel composition samples of diesel oil (Gulf Coast - 0.4% Sulfur, Howell) containing various concentrations of additives as indicated in Table m were prepared. Diesel Fuel oxidative stability tests were performed using a Modified ASTM 2274 Test Method. The ASTM method was modified by changing the test duration from 16 hours to 40 hours. The oxidation stability of the fuel compositions is shown in Table III as the amount of insolubles present.
As to `CC(C)CCCCCCN` [iso-nonylamine], the “Insolubles mg/100 mL” value came to 2.1 mg/100 mL.
Take `CC(C)(C)CC(C)(C)N` [Primene® TOA, t-octyl primary amine]: the “Insolubles mg/100 mL” value is recorded as 0.4 mg/100 mL.
Next, `CCCCCCCCCN` [n-nonylamine]: 1.9 mg/100 mL.
The same measure for `CCCCC(CC)CN` (stereo not shown) [2-ethylhexylamine]: 2.2 mg/100 mL.
